At least one compound was matched to its structure with a doubt left.
Experiments:
dissolvability at 25° C. = format: physicochemical
Protocol: As determined, at 25° C., the dissolvability of monofructosyl-β-(2,6)-mangiferin is 350 g/L, and that of bifructosyl-β-(2,6)-mangiferin is 1200 g/L, respectively 3.5×103 times and 1.2×104 times that of mangiferin (0.1 g/L) under the same condition.

[1] = system: Human chronic myelogenous leukemia cell strain K562; experiment: K562 cell toxicity test (MTT method); format: cell-based; conditions: after acting for 48 h
Protocol: Human chronic myelogenous leukemia cell strain K562, purchased from the cell bank of Shanghai Cell Research Institute of Chinese Academy of Sciences; mangiferin, purchased from Nanjing Zelang Medical Science and Technology Co., Ltd.; monofructosyl-β (2,6)-mangiferin is prepared with the method described in this invention, with purity over 99% as determined by high performance liquid chromatography. Drug liquid and its storage: weigh 8.44 mg mangiferin powder and dissolve it in 2 mL DMSO to prepare it into 10 mmol/L mangiferin; weigh 11.68 mg monofructosyl-β (2,6)-mangiferin powder and dissolve it in 2 mL DMSO to prepare it into 10 mmol/L monofructosyl-β (2,6)-mangiferin; they are filtered with a 0.22 μm filter, packed in 1000 μL/doff and stored at −20° C., meanwhile, high concentration DMSO is filtered with a 0.22 μm filter for use as control. The K-562 cells are cultured in RPMI-1640 complete culture medium containing inactivated calf serum at volume fraction of 10%, 100 U penicillin and streptomycin, in an incubating box at 37° C., with 5% CO2 and at saturated humidity. […]

What does the source list for `O=c1c2cc(O)c(O)cc2oc2cc(O)c([C@@H]3O[C@H](CO)[C@@H](O)[C@H](O)[C@H]3O)c(O)c12` [mangiferin]?
dissolvability (dissolvability at 25° C.): 0.1 g/L; effect on K562 cell proliferation (in words) [1]: can substantially reduce the number of K562 cells

— patent US8946407B2, “Fructosylated mangiferin and preparation method therefor and use thereof” (priority 2011, dated 2015)
